The whole screen tested about 53,000 sequences, of which about 3,700 (7%) were called active.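 How the source made its calls: active means gene knockdowns whose robust z-score for IL-1 alpha signal is at least 2 or at most -2, so actives lie on both sides; inactive means the rest.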 Some of the results follow.

The values that follow come from PubChem BioAssay AID1508600 (Functional Genomics Laboratory (NCATS/FGL), 2020).

The nature of this assay: Components of the Cytosolic LPS Sensing Pathway: Gene Identification via Genome-wide siRNA Screen.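 Further: robust z of the log signal after scaling to non-targeting control siRNA wells of the plate.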 The note with it: RAW264.7 macrophages, IL-1a HTRF, actives lie on both sides, screened at 100 nM (by protocol), cells primed 5 h with Pam3CSK4 first. Put shortly:
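RAW264.7 mouse macrophages reverse-transfected with single siRNAs (100 nM final) for 48h, primed with Pam3CSK4 for 5 hours, then transfected with LipidA for 24 hour. Supernatant IL-1a read by HTRF; values normalized to negative-control median, log-transformed robust z-scores.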
(In general: In TR-FRET formats the signal depends on donor and acceptor labels being close together.)
For GCCAUUGCCUCAUAAUUUATT against Pam16, the z-score is inactive: 1.1.

On to GCAAUAGACCGUUAAUGGATT against Tslp, for which the z-score was inactive: 0.127.

Take CCUUCGAUAAAUCUCAAAUTT against Stambp: the z-score is inactive: 1.27.

With GAAGACCAAGCUUUGUACUTT against Olfr339, the z-score is active: 2.28.

Consider GGAAAAGGAAUGUGAAUACTT against Celsr2, for which the z-score was inactive: -1.94.

Take GGAAGAGGAGAAUGUCUUGTT against Traip: the z-score is inactive: 0.291.

As to CGUAUUAUUGUCAUGCUGUTT against Gpr142, the z-score was inactive: 0.493.

With GCACAUGCCAACUCAUUCUTT against Ergic1, the z-score was inactive: 0.541.

Take GCCUCUAUCUGUACUCUGGTT against Pdk2: the z-score was inactive: -0.944.

In the case of GGAGAUGAGCUGUAUGUGATT against Nudt19, the z-score was inactive: 0.862.

For GGAAAAAGAACACCUUUUATT against Ints6l, the z-score is inactive: -0.74.

Consider GUGUCCUGAACCUUGUCCCTT against Sprr2g, for which the z-score is inactive: 0.978.

For GGGAGUCCUACGCAUAUGATT against BC051665, the z-score was inactive: -0.928.

On to GGUACAAUGUUCAUACCAATT against Rab9b, for which the z-score was inactive: 0.528.

GGCUCGUGAGCAUUCACUGTT against Nfrkb: the z-score is inactive: -0.664.

Take UGGUGCUGCUAUCUAUACCTT against Olfr330: the z-score is inactive: 1.01.

On to GCAGCACACUUGGUACAUCTT against Icmt, for which the z-score was inactive: 1.88.

For the sequence CCUCAAGGCACUAAUAGAATT against Car7, the z-score was inactive: -0.541.

Turning to GCUGUUUGAUAAAACAAGATT against Snx6, the z-score was inactive: 0.758.

On to GUCUGCUCAUCGACAGCUATT against Ripor1, for which the z-score was inactive: -0.829.

GGCUUAUCACAGGAAGAUCTT against Atg4c: the z-score is inactive: -0.597.

Regarding CCUGUUUUAUGCCACAAUUTT against Tas2r125, the z-score is inactive: 0.0722.

Turning to CCUAUUGUCCUGCUAACAATT against Aldh7a1, the z-score is inactive: -0.177.

As for GGAUCAUAGAGCAUCUUGATT against Sectm1a, the z-score was inactive: 0.0412.

In the case of GGGAAGAGGAUAGGAUUCGTT against Ntpcr, the z-score is inactive: 0.156.

With GGCCUGUACGGAGAUCAAUTT against Dpp7, the z-score was inactive: 0.331.

Turning to GGUUGUGUAUGUGGAAAGUTT against Ppm1j, the z-score was inactive: 1.57.

Take GGUGACUGUCCUAUGAUAUTT against Crip2: the z-score is inactive: -0.551.

As for GCCCAUCUAGGAUCUAUAUTT against F9, the z-score is inactive: -1.58.

Take GGAAGUGUCCAGCAAUUAGTT against Stc2: the z-score is inactive: 0.0287.

CGUUGCUGAGAACGAGUCGTT against Pomc: the z-score is inactive: -1.13.

Consider GGCCACAAGAUACAUAUAUTT against Bmi1, for which the z-score is inactive: -1.33.

Regarding AUCAGGGAUCCUAACAUCATT against Ly6c1, the z-score was inactive: -1.01.

Regarding “CGUGAAAGAUCAUCUCAGATT against 4933427D14Rik”, the z-score was inactive: -1.7.

As for “GGUCUCUGUAGAGAUGGCATT against 6820408C15Rik”, the z-score is active: -2.52.

GGUGAUUACUCUUAUGUGATT against Slc7a8: the z-score is inactive: -0.663.

GGAAUACCAGGCCUUCCUUTT against B4galnt1: the z-score is inactive: -0.886.

CCUCAUUUAGAUGUCUUGATT against Ran: the z-score is inactive: -0.0987.

As to GCUCAGACUAGAUUAAUGUTT against Gmeb2, the z-score is inactive: -1.17.

Turning to GGAAGUCUGUCCAAGGUAUTT against Olfr192, the z-score is inactive: -1.17.

On to GGCUUAGGGACUAUGAGGATT against Clec4f, for which the z-score was inactive: 0.125.

Take GCCAAAUACGUGUAUGACUTT against Sfxn3: the z-score is inactive: -1.84.

In the case of GGAGAACUGAUAAAGCUUUTT against Tas2r105, the z-score is inactive: 0.086.

Consider GGCUUGUGGAUGAAUUGUATT against Cldn8, for which the z-score is inactive: -0.382.

As for CGCAGGAUAUUUCUAUCCATT against Prl7b1, the z-score was inactive: -0.277.

Consider GGCUCUAACUGUGAGAAGATT against Dll3, for which the z-score is active: -2.44.

Take CCCUUGUGAUGUGGUGAAGTT against Slc25a22: the z-score is inactive: -1.5.

On to GUGAUGUCACCCACGAAAGTT against Erdr1, for which the z-score was inactive: 0.356.

With GGAGAAGGUCAUUCUGAUGTT against Specc1l, the z-score is inactive: -0.0983.

Regarding GCUGAAAUCCUUAAUCUCGTT against Col6a3, the z-score was inactive: 1.55.

As for GGCAUCUUUACAUUUGUGATT against Sap30, the z-score is inactive: 0.988.

Take GGACCAUAAAACAGUCUGATT against Endod1: the z-score is inactive: -0.627.

As for GCCAUGUGAGACUCUUAUATT against Slc2a9, the z-score is inactive: 0.62.

On to GGUUCUUGAAACACUUUACTT against Hvcn1, for which the z-score is inactive: 0.843.

Regarding GGAAUGGAAAUUUGAUACUTT against Eif4a3, the z-score was inactive: -0.7.

Take GGUUCUCCGAACUCUGUUGTT against Gbf1: the z-score was inactive: -1.44.

Take CCUGCUACAAGUAUCUCAATT against Fdft1: the z-score was active: 2.85.

For the sequence GUGUUCAGCAAUUCCUACCTT against Tma7, the z-score is inactive: 1.3.

Take GGCUAUCUGAUUUUUGUUGTT against Nlrp3: the z-score is inactive: -0.0259.

As to CCUAAUCUCUUGUAGGUAUTT against AU018091, the z-score was inactive: 1.03.

Take GGUUUUCAAAUGUCUAUCATT against Pithd1: the z-score is active: 2.37.

GGCAAAAGUGUGAACAGUUTT against Sftpb: the z-score is inactive: -0.213.

GGAGAAGAAGAAAGAGCGGTT against Gja3: the z-score was inactive: -0.981.

Consider CGAACUUCAAGACUGUGAUTT against Cep95, for which the z-score was inactive: -0.248.

Turning to GGAUGUGUUUGUGUGCAUGTT against Recql5, the z-score was inactive: 0.785.

For CCCUUAGCGACUUUUCUAATT against Eif5b, the z-score was inactive: 0.71.

As for GGCAAAUCCCGUUCACUGATT against Magel2, the z-score is inactive: -1.08.

As to AGACCGAGUAAGUUUAACUTT against Lrrc39, the z-score was inactive: 0.102.

With GGAAUAAUUGGUGUUAAAGTT against Hnrnpk, the z-score is inactive: 0.346.

GCCAAGAAAAUCAAGUCUCTT against Pknox2: the z-score is inactive: 0.892.

CGGAAUCAAGGACCGAGUUTT against Ndufab1: the z-score is inactive: -0.0943.

Consider GACCACAGAUGACAUGGUGTT against Il12a, for which the z-score is inactive: 0.447.

Turning to GGAUGUGUUACUUACCAAATT against Map4, the z-score is inactive: 0.607.

With GGAAACCUUCAGGUUCUGATT against Cdon, the z-score was inactive: 0.703.

For the sequence GUUGUGCCUCCCUCAAUCATT against Ndufa7, the z-score is inactive: -1.03.

Consider CGUAGGACUGAAUCAGCUUTT against Slc13a3, for which the z-score was active: -3.04.

GGCUAUCACAUGUAACUUCTT against Cplx3: the z-score is inactive: -0.602.

For the sequence GGCAGAGAAGCAAAACCAATT against Iqcf3, the z-score is inactive: -1.82.

Consider GGACUUCAUGCAUCUUACUTT against Stat1, for which the z-score is inactive: -0.228.

For GGAUUAUAAGUGGAGAAUGTT against Sytl5, the z-score was inactive: -0.468.

GGCACUUCAAGGAGUUUUUTT against Lig4: the z-score was active: 3.25.

On to GGAAAAUACAGCGCGAAUUTT against Nexn, for which the z-score was inactive: 1.4.

Regarding GGAUCUCCUGCUUGAACUGTT against Adam33, the z-score is active: 2.79.

On to CCAUCACUCGAGCUUCUAGTT against Dhx30, for which the z-score is inactive: 0.185.

As to GGACCUCUAGCUGGAACACTT against Il17c, the z-score is inactive: -1.08.

In the case of CCUUGUGGUUUUCGUAACGTT against Mrgprb1, the z-score is inactive: 1.79.

Take CCAACUCCUGGAAGAUGCATT against Olfr1314: the z-score is inactive: 1.06.

In the case of GCGGAACUGACUUUCCUGATT against Rhot2, the z-score is inactive: 0.443.

Regarding GGUCAGAAUCUUUGUUCCUTT against Ndufs4, the z-score is inactive: -0.912.

Consider GGUUUUACCGAUGAUGCAUTT against Pcdhb20, for which the z-score is inactive: -0.624.

GCCACCCUAACAUUGUUUCTT against Gm4922: the z-score was inactive: 1.98.

For GGUGUAAAGGAAAGAAGAATT against Gm9871, the z-score was inactive: 0.684.

For the sequence GGAGACAUAUGAGACUCUGTT against Fcer1g, the z-score is inactive: 0.156.

Take GGAUGUUUGCUCUUGAGCGTT against Isoc1: the z-score was active: -2.17.

With GGUAGAUGCUUUGAGCUUCTT against Enpp2, the z-score is inactive: 0.17.

With GCUAUUCGUCAAUGCUGACTT against Abcf1, the z-score was inactive: 0.0808.

Turning to GCCAGAGCAUGAGUGAAAATT against Sephs2, the z-score was inactive: 0.351.

With GGUGACUAGGAAGAACACGTT against Tmem9b, the z-score was inactive: 1.99.

For GGAAUUUCCCAAAAGCACUTT against Nubp2, the z-score is inactive: 1.7.

GGUUGUCACCAUCAGUCCUTT against Vmn1r195: the z-score was inactive: 0.219.

For GGGCUGUAUAUAAAAUAUCTT against Gprc5b, the z-score was inactive: 0.44.

Turning to GGUGGAAGACAAUGAAAUUTT against Ftsj1, the z-score was inactive: -0.56.

Consider CCUCGACACUACUGUGUUATT against Mvp, for which the z-score was inactive: -0.0476.

As for GGCUACCAGGUUCUUAAACTT against Alox12b, the z-score is inactive: 0.229.

As for CCCUCUCCGAUAUAACACUTT against Olfr672, the z-score is inactive: 1.45.

On to GCCGGUCUUUCAAGAAGAUTT against Lnx1, for which the z-score is inactive: 0.559.

Take GGCAAAACAAAGAAUGAAATT against Prss40: the z-score is inactive: -0.38.
